{"sequences": {"note": "Amino acid sequences for entries named in this document (tags omitted). A change or cut given only in a name is not applied to a line headed by its entry.", "UniProt P78347": "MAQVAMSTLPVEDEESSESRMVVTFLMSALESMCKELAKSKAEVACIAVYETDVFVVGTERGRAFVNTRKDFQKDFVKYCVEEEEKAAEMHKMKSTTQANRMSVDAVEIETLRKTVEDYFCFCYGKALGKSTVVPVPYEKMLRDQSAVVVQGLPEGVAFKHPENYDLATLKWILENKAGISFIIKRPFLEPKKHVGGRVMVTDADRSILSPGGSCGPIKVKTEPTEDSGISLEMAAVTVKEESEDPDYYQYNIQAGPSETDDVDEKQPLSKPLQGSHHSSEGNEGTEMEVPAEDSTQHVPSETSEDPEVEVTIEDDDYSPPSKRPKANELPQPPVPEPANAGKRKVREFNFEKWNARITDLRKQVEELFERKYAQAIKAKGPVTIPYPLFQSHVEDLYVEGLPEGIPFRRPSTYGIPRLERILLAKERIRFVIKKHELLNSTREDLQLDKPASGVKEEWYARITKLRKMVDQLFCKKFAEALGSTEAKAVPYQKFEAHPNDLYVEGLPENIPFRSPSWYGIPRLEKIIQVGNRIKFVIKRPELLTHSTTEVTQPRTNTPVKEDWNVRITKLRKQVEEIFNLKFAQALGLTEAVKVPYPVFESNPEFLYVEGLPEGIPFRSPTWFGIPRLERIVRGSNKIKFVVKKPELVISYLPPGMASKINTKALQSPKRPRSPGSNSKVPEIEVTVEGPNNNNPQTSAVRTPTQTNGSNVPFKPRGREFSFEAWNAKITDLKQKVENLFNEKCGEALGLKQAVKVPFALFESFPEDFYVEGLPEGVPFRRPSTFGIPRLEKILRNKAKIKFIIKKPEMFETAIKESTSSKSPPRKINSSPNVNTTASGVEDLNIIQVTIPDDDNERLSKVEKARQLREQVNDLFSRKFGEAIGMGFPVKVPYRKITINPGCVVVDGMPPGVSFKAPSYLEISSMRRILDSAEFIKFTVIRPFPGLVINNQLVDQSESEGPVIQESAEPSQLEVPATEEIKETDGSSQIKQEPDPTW", "UniProt P23769": "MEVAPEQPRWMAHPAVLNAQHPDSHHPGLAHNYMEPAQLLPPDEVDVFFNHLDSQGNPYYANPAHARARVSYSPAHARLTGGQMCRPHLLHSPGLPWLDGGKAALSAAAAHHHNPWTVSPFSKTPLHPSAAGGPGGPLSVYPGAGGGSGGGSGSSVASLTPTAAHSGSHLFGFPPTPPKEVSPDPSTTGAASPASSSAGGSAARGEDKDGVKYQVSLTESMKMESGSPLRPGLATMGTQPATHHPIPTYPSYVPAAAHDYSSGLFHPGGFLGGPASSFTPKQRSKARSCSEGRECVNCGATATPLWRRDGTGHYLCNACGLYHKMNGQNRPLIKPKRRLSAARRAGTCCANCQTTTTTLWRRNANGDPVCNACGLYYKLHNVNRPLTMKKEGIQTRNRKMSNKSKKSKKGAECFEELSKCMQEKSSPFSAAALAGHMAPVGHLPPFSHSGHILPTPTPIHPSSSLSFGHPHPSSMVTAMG"}, "source": "patent US20110135632A1", "key": {"human TFII-I (human) [1]": {"molecular_target": "human TFII-I (human) (UniProt P78347)", "test": "co-immunoprecipitation, immunoblot (FIG. 11A)"}, "human TFII-I (human) [2]": {"molecular_target": "human TFII-I (human) (UniProt P78347)", "test": "co-immunoprecipitation in cells overexpressing HA-GATA2, immunoblot (FIG. 11A)"}, "human TFII-I (human) [3]": {"molecular_target": "human TFII-I (human) (UniProt P78347)", "test": "co-immunoprecipitation with anti-TFII-I antibody in p190RhoGAP knockdown HMVE cells (FIG. 11B)"}, "human TFII-I (human) [4]": {"molecular_target": "human TFII-I (human) (UniProt P78347)", "test": "co-immunoprecipitation, immunoblot (FIG. 11B)"}}, "note": "Results are given in words; binding and its absence hold for the method and conditions named. Binding seen in cells or lysates may run through a third protein. Some binding calls cover weakened binding; strength is not graded here."}
{"substance": "HA-GATA2 (from UniProt P23769 1-480)", "values": [{"measurement": "binding", "setting": "human TFII-I (human) [1]", "value": "binds"}, {"measurement": "binding", "setting": "human TFII-I (human) [2]", "value": "binds"}]}
{"substance": "human GATA2 (from UniProt P23769 1-480)", "values": [{"measurement": "binding", "setting": "human TFII-I (human) [3]", "value": "binds"}, {"measurement": "binding", "setting": "human TFII-I (human) [4]", "value": "binds"}]}
